# Measurements from PubChem BioAssay AID485298 (National Center for Advancing Translational Sciences (NCATS), 2010).
# Screen size: about 320,000 compounds; about 740 (0.23%) were called active. Inconclusive means that the source gave no clear call. Such entries were picked first, then a sample of the others. The call rests on the fitted dose curve; in most records, active means well fitted activation curve with a large enough effect; inconclusive means small, poorly fitted or top-dose-only effect; inactive means no such curve, though single readings can be large or run the other way. Where the call is inconclusive, the potency comes from a doubtful curve fit.
# Assay: qHTS Assay for Small Molecule Inhibitors of Mitochondrial Division or Activators of Mitochondrial Fusion; further: nearly all actives have a fitted effect of over 45% in size;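 on growth rescue (activation): temperature-sensitive fusion mutants such as fzo1-1 at 37 °C on non-fermentable ethanol glycerol medium; % of control where 0% means no effect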
# Settings: S. cerevisiae fusion-defective mutant growth rescue, CellTiterGlo 48 h; growth rescue (activation): at 46.1 µM (top of the series) unless noted
# In short: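 Yeast fusion mutant, YPEG (non-fermentable carbon), compound, 48 h at 37C non-permissive; CellTiterGlo added, 10 min RT, luminescence read. Rescued growth = division inhibition.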
# Potency means the concentration at half of the fitted maximal effect.
Compound,Potency,growth rescue (activation)
Cc1ccc(C)c(NC(=S)N/N=C2/CCCCc3ccccc32)c1,"inconclusive: 17.8 µM [activator, partial curve]",–
O=C1C=C(/C=C/c2ccccc2)C[C@@H](c2ccc3c(c2)OCO3)C1,"inconclusive: 12.6 µM [activator, single point]",–
COc1cc2c(cc1OC)CN(C(=O)c1sccc1C)CC2,–,inactive: -2.03%
O=C(O)c1ccc2c(c1)C(=O)N([C@]1(C(=O)O)C[C@H]1c1ccccc1)C2=O,–,inactive: -4.97%
COc1ccccc1C(=O)NC(=O)Nc1c(C)cc(C)cc1C,"inconclusive: 20 µM [activator, partial curve, poor fit]",–
COc1ccc(CN(C)C(=O)c2cccc(S(=O)(=O)N3CCc4ccccc43)c2)c(OC)c1,"inconclusive: 12.6 µM [activator, single point]",–
CSC1=C(C#N)C(c2ccccc2)C(C(C)=O)=C(C)N1 (stereo unspecified),"inconclusive: 25.1 µM [activator, partial curve]",–
CC(C)Cc1cc(C(=O)Nc2cc(Br)ccc2O)no1,"inconclusive: 11.2 µM [activator, partial curve]",–
CCOC(=O)C(C(=O)OCC)N(C#N)c1nc(OC)nc(N(C)C)n1,"inconclusive: 35.5 µM [activator, single point]",–
COc1ccc(S(=O)(=O)N2CCN(C(=O)c3cc4c(s3)CCCC4)CC2)cc1,"inconclusive: 17.8 µM [activator, single point]",–
COc1ccc2oc(-c3ccccc3)c(C(N)=O)c2c1,–,inactive: 0.764%
O=C(NCC1(c2ccccc2)CCCC1)c1ccccc1Br,"inconclusive: 12.6 µM [activator, partial curve]",–
COc1ccccc1N1CCN(C(=O)c2oc3ccc(Br)cc3c2C)CC1,"inconclusive: 17.8 µM [activator, partial curve]",–
CN(Cc1ccc(C(C)(C)C)cc1)C(=O)c1ccc2c(c1)OCO2,"inconclusive: 31.6 µM [activator, single point]",–
CCc1nc2ccccc2c(C(=O)OCC(=O)NCc2ccc3c(c2)OCO3)c1C,"inconclusive: 20 µM [activator, single point]",–
COc1cc(/C=N/Nc2ccc(C(=O)O)cc2)ccc1O,–,inactive: -9.07%
COc1ccc(CC(=O)Nc2nc(-c3ccccc3)c(C(C)=O)s2)cc1OC,–,inactive: -0.513%
CC(C)(C)NC(=O)NC(=O)COc1ccc(Br)cc1Br,"inconclusive: 17.8 µM [activator, single point]",–
CC1C2Cn3c(nc4ccccc43)C1N(C(C)C)O2 (stereo unspecified),"inconclusive: 3.16 µM [activator, partial curve]",–
O=c1c2c3c(sc2n2cnnc2n1CCc1ccccc1)CCCC3,"inconclusive: 12.6 µM [activator, single point]",–
COC(=O)c1c(-c2ccccc2OC)sc2ccc(OC)cc12,"inconclusive: 12.6 µM [activator, single point]",–
O=C(NCc1ccccc1)c1ccc2ccccc2n1,"inconclusive: 35.5 µM [activator, single point]",–
Cc1ccc(Nc2nc(N/N=C/c3c[nH]c4ccccc34)nc(N3CCOCC3)n2)cc1,–,inactive: -2.89%
OCC1(CCc2ccccc2)CCN(Cc2ccc(OC(F)F)cc2)CC1,"inconclusive: 6.31 µM [activator, partial curve]",–

Compound,Potency,growth rescue (activation)
O=S(=O)(c1ccc(Cl)cc1)N1CCN(C(=S)Nc2ccc(F)c(Cl)c2)CC1,–,inactive: 0.063%
COc1ccccc1NC(=O)c1ccc(NS(=O)(=O)c2ccc(F)c(F)c2F)cc1,"inconclusive: 14.1 µM [activator, partial curve]",–
COc1ccccc1C(C(=O)NC1CCCC1)N(C(=O)c1csnn1)C1CC1 (stereo unspecified),active: 3.16 µM,–
COc1ccc(SCCN2CC[C@@H](C(C)(C)C)CCC2=O)cc1,–,inactive: 3.04%
O=S(=O)(NC1C2CC3CC(C2)CC1C3)c1ccc(F)cc1 (stereo unspecified),–,inactive: 5.96%
N#Cc1ccc(CSc2nnc(-c3c[nH]c4ccccc34)n2-c2ccccc2)cc1,–,inactive: 2.35%
O=C(CSc1nnc(SCc2ccc(Cl)cc2)s1)N1CCOCC1,"inconclusive: 35.5 µM [activator, partial curve]",–
CS(=O)(=O)c1sc2nc(-c3ccccc3)cc(-c3ccccc3)c2c1N,"inconclusive: 14.1 µM [activator, partial curve]",–
COc1ccc(C)cc1NC(=O)C(Sc1ccccc1)c1ccccc1 (stereo unspecified),"inconclusive: 17.8 µM [activator, single point]",–
CCN1C(=O)/C(=C\N(C)C)NC1=S,–,inactive: 0.248%
COc1ccc(C(=O)CCN2CCc3cc(OC)c(OC)cc3C2)cc1,–,inactive: -6.03%
Cc1ccc(C)c(/C=C/C(=O)c2ccccc(=O)c2O)c1,"inconclusive: 11.2 µM [activator, partial curve]",–
Cc1ccc(-c2nnc(NC(=O)c3ccco3)o2)c(C)c1,"inconclusive: 2.82 µM [activator, full curve]",–
C=C1SC(=Nc2ccccc2Cl)N(C(=O)c2sc3ccccc3c2Cl)C1(C)C,"inconclusive: 22.4 µM [activator, partial curve]",–
O=C(CN1CCOCC1)Nc1cc(C(F)(F)F)ccc1Cl,"inconclusive: 14.1 µM [activator, partial curve]",–
S=c1[nH]nc(C2CCCCC2)n1/N=C/c1ccccc1,–,inactive: -15.3%
CCSc1nnc(NC(=O)c2ccccc2C)s1,"inconclusive: 4.47 µM [activator, single point]",–
COCCCn1c(=S)[nH]c2sc3c(c2c1=O)CCCC3,"inconclusive: 35.5 µM [activator, single point]",–
O=C(c1cc2ccccc2o1)c1nc2c(n1O)CCCCC2,"inconclusive: 17.8 µM [activator, single point]",–
COc1ccc2cc(C3=CC(=O)C[C@H](c4ccc5c(c4)OCO5)C3)ccc2c1,"inconclusive: 17.8 µM [activator, single point]",–
COCCCNC(=O)c1c(N)n(/N=C/c2ccccn2)c2nc3ccccc3nc12,–,inactive: 4.38%
CCOC(=O)Nc1ccc2c(c1)N(C(=O)N(C)C)c1ccccc1CC2,"inconclusive: 11.2 µM [activator, partial curve]",–
O=[N+]([O-])c1nn(-c2ccc3c(c2)OCCO3)n(O)c1=NC1CCCCCC1,"inconclusive: 12.6 µM [activator, partial curve]",–
CCN1C(=O)[C@@H]2[C@@H](c3ccc(-c4ccc(Cl)c(Cl)c4)c(OC)c3)N3CCCC[C@@]3(C(=O)OC)[C@@H]2C1=O,–,inactive: 3.4%

# Single entries from above:
# Value for `Cc1ccc(-c2nnc(NC(=O)c3ccco3)o2)c(C)c1` under Potency: inconclusive: 2.82 µM [activator, full curve]
# Value for `CCSc1nnc(NC(=O)c2ccccc2C)s1` under Potency: inconclusive: 4.47 µM [activator, single point]

# More structures.

Compound,Potency,growth rescue (activation)
CCC(=O)NC(c1ccc(Cl)cc1Cl)c1ccc2cccnc2c1O (stereo unspecified),–,inactive: -1.21%
Cc1cccc(-n2cc(CN3CCCN(C=O)CC3)c(-c3cccc(F)c3)n2)c1,–,inactive: 20.8%
Cc1ccc(NC(=O)C2=C(O)CCn3c2nc2ccccc23)cc1,"inconclusive: 17.8 µM [activator, partial curve]",–
S=c1[nH]nc(-c2cc(-c3ccccc3)n[nH]2)n1/N=C/c1cccc(Cl)c1,–,inactive: 2.8%
N/C(=N\OC(=O)c1cccc(F)c1)c1cccc([N+](=O)[O-])c1,–,inactive: 0.884%
COC(=O)c1sccc1NC(=O)c1ccccc1[N+](=O)[O-],"inconclusive: 22.4 µM [activator, partial curve]",–
CC(NC(=O)C(=O)N1CCCCC1)C(c1cccs1)N1CCN(c2ccccc2)CC1 (stereo unspecified),"inconclusive: 11.2 µM [activator, partial curve]",–
COc1cccc(Nc2ncnc3sccc23)c1,"inconclusive: 17.8 µM [activator, single point]",–
CCOC(=O)Cc1csc(N/N=C/c2cccc([N+](=O)[O-])c2)n1,"inconclusive: 3.98 µM [activator, single point]",–
O=C1C=C(c2cccc(Br)c2)C[C@@H](c2ccc3c(c2)OCO3)C1,"inconclusive: 8.91 µM [activator, single point]",–
COc1cc(C)ccc1N(CCCN1C(=O)c2cccc3cccc(c23)C1=O)C(=O)c1cccs1,"inconclusive: 7.08 µM [activator, partial curve]",–
O=C1CN(C(=O)NCC(=O)N[C@H](C(=O)O)c2ccccc2)c2ccccc2N1,"inconclusive: 25.1 µM [activator, partial curve]",–
COc1ccc(N(CC(O)CN2CCOCC2)S(=O)(=O)c2ccccc2)cc1 (stereo unspecified),"inconclusive: 35.5 µM [activator, single point]",–
CCOC(=O)c1ccc(NC(=O)C2CCCN(c3cnccn3)C2)cc1 (stereo unspecified),"inconclusive: 12.6 µM [activator, partial curve]",–
CCCNC(=O)c1ccc(COc2ccc(C(C)(C)C)cc2)o1,"inconclusive: 10 µM [activator, partial curve]",–
COc1ccc(NC(=O)Cc2nnc(SCC(=O)Nc3ccccc3)n2C)cc1,"inconclusive: 31.6 µM [activator, single point]",–
O=c1cc(-c2ccccc2)[nH]c2nc(Cl)ccc12,"inconclusive: 20.6 µM [activator, single point]",–
O=C(OCC(=O)N1CCCc2ccccc21)c1ccccc1NCCO,–,inactive: -1.55%
O=C1NC2(CCCCC2)C(=O)N1/N=C/c1ccc(O)cc1O,–,inactive: 13%
CCCCCCn1c(N2CCN(c3ccccc3)CC2)nc2c1c(=O)n(C)c(=O)n2C,"inconclusive: 17.8 µM [activator, single point]",–
COc1ccc(-n2ccc(=O)c(C(=O)O)n2)c(OC)c1,–,inactive: 2.01%
Cc1ccc(C2CC(c3cccs3)=NN2C(=O)c2ccco2)o1 (stereo unspecified),"inconclusive: 3.98 µM [activator, full curve, poor fit]",–
COc1cccc(-c2csc(N3CCN(C(=O)Nc4ccc(F)cc4)CC3)n2)c1,"inconclusive: 25.1 µM [activator, single point]",–

# Structures from the list above that contain a cyano group:
Compound,Potency,growth rescue (activation)
CSC1=C(C#N)C(c2ccccc2)C(C(C)=O)=C(C)N1 (stereo unspecified),"inconclusive: 25.1 µM [activator, partial curve]",–
CCOC(=O)C(C(=O)OCC)N(C#N)c1nc(OC)nc(N(C)C)n1,"inconclusive: 35.5 µM [activator, single point]",–
N#Cc1ccc(CSc2nnc(-c3c[nH]c4ccccc34)n2-c2ccccc2)cc1,–,inactive: 2.35%
